Among the data in PMC7294778 are binding values, retold here.

This assay concerns the target T1, Sit4-HA (S. cerevisiae) (UniProt P20604).
T1 sequence: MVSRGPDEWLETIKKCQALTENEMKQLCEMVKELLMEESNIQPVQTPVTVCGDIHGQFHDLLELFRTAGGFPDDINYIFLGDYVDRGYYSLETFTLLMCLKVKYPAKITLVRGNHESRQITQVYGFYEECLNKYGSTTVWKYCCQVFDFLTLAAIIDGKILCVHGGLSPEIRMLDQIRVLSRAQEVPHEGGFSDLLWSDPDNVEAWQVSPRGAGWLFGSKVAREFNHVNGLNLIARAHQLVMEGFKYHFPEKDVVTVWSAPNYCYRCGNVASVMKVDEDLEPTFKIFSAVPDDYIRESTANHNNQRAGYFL
Kind of assay: co-IP; extracts of cells co-expressing KNS1-myc13 and SIT4-HA, grown exponentially in YPD at 30°C, treated or not (mock) with 300 nM rapamycin for 1 hr; lysis buffer 50 mM NaCl, 150 mM Tris-HCl pH 8.0, 0.1% NP40, 1 mM EDTA, 1 mM EGTA, 1 mM PMSF; immunoprecipitated with anti-HA antibody and protein A/G beads; Western blot. On the technique in general: In western blotting, separated proteins are transferred to a membrane and probed.

No constants are given. Whether binding was seen depends on the method and setting. Binding seen in cells or lysates may run through a third protein. Some results given as binding are weak or reduced against the parent protein; the word gives no strength. Where a sequence is shown, tags or fusion partners need not be part of it.

B1: Kns1-myc13 (protein, UniProt P32350 1-737)
chain: MSQNIQIGTRKRSRANMNNSTTTGPANNTSSNKTFLDNFEETRTNKLLDEMFARQNSFLTDNLRNSLDLNQADNPLRPRQHQHQLFLDNENAIELDEEPRIINTTINNSNNHNSSRVDEDADDDIIFIKEQPIQFSSPLILPSSSSINNNNNIVTSNNPGCGTAATSNSTYITTPKKFKKQRTISLPQLPLSKLSYQSNYFNVPDQTNAIVPRVTQTENELLHLTGSCAKTLEGNKAVNLTIAHSTSPFSNPPAQIASLPQSNLKKQIGSSLRKFTSNGSSESASSNKSNFKTDKDGHYVYQENDIFGSGGRFVVKDLLGQGTFGKVLKCIDNKYEPNYVAVKVIRAVDRYREAAKTELRILQTILNNDPQGQFQCLLLRECFDYKNHICLVTDLYGRSIYDFMCSNGIARFPGSHIQAIARQLIRSVCFLHDLGIIHTDLKPENILICDETHIAQKLPLKTVQSLSKRRREASKGKRKILKNPEIKIIDFGSAIFHYEYHPPVISTRHYRAPEIVLGLGWSFPCDIWSIACVLVELVIGESLYPIHENLEHMAMMQRINGTPFPTDIIDKMFYKSKHKLGNSPSDLNSTVIKHFDRKTLSLQWPEKNKRGDTITTEKSMKRVLQSCDRLDIYISKVLKQDYGDSLSINWNLPPEKNWSLINSKLAWKRQTHSSSSSTTDELDKETFLFWYWFIDLLRKMFEFDPTKRITAKDALDHEWFNLGILDDGIATYNNTQG
As to B1, the binding entry is reported as “binds”.
